These are yes or no findings as the source states them, for the method shown. Binding seen in cells or lysates may run through a third protein. A yes stands for co-enrichment or nearness to the bait. Other partners may have been found.

The assay addresses T1, TRIM28 (human) (UniProt Q13263).
T1 sequence: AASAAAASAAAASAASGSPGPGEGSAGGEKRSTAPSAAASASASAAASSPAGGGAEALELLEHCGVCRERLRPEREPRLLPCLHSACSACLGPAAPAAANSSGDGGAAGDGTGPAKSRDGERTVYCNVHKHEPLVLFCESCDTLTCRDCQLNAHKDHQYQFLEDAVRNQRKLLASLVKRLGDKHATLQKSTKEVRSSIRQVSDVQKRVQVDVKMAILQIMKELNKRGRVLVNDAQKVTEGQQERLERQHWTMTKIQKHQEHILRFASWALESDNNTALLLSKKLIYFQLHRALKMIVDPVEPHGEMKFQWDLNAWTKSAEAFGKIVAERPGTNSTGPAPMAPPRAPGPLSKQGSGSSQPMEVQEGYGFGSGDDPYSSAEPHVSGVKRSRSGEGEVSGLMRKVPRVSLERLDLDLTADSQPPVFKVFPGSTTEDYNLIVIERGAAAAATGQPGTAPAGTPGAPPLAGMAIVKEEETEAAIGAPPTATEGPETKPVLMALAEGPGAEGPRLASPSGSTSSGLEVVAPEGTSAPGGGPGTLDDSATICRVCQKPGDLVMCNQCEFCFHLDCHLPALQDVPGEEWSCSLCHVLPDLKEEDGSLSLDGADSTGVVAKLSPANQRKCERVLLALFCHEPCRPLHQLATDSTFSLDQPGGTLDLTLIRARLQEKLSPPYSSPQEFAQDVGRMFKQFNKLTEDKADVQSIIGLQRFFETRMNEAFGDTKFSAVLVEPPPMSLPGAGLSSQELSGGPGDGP
Briefly: One-Strep affinity purification after DTBP cross-linking, SDS-PAGE, mass spectrometry.

B1: One-Strep-IRF5 fusion protein (other)
chain: MNQSIPVAPTPPRRVRLKPWLVAQVNSCQYPGLQWVNGEKKLFCIPWRHATRHGPSQDGDNTIFKAWAKETGKYTEGVDEADPAKWKANLRCALNKSRDFRLIYDGPRDMPPQPYKIYEVCSNGPAPTDSQPPEDYSFGAGEEEEEEEELQRMLPSLSLTEDVKWPPTLQPPTLQPPVVLGPPAPDPSPLAPPPGNPAGFRELLSEVLEPGPLPASLPPAGEQLLPDLLISPHMLPLTDLEIKFQYRGRPPRALTISNPHGCRLFYSQLEATQEQVELFGPISLEQVRFPSPEDIPSDKQRFYTNQLLDVLDRGLILQLQGQDLYAIRLCQCKVFWSGPCASAHDSCPNPIQREVKTKLFSLEHFLNELILFQKGQTNTPPPFEIFFCFGEEWPDRKPREKKLITVQVVPVAARLLLEMFSGELSWSADSIRLQISNPDLKDRMVEQFKELHHIWQSQQRLQPVAQAPPGAGLGVGQGPWPMHPAGMQ
notes: also called full-length IRF5 (One-Strep bait); not shown: One-Strep tag
As for B1, the binding result was “binds”.
